PubChem BioAssay AID1259425 – University of Nebraska Medical Center – 2018
In all, the deposit lists about 14,000 reagents; this is a part drawn at random. Not all columns of the deposit are shown. No sequences are given here. Not stated in the record: the time to read-out.

Purpose: 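Seek colon cancer weak points whose silencing resembles KSR1 loss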 (primary screen)
Cells: HCT116 human colon cancer cells
Knock-down reagent: siRNA pool against human genes, 50 nM siRNA
Measured: 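mRNA of six signature genes measured together by branched-DNA assay after 50 nM siRNA pool, blank removed, divided by geometric mean of two housekeeping genes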
Direction: BNIP3L mRNA: higher = more BNIP3L transcript after knockdown; NDRG1 mRNA: higher = more NDRG1 transcript after knockdown; BNIP3 mRNA: higher = more BNIP3 transcript after knockdown; ALDOC mRNA: higher = more ALDOC transcript after knockdown

gene | BNIP3L mRNA, set 1 | NDRG1 mRNA, set 1 | BNIP3 mRNA, set 1 | ALDOC mRNA, set 1
SYP | 0.177 | 0.163 | 0.319 | 0.0337
HABP4 | 0.0821 | 0.277 | 0.355 | 0.0127
PCDHB10 | 0.254 | 0.281 | 0.566 | 0.0161
HNRNPD | 0.185 | 0.23 | 0.37 | 0.0107
NETO1 | 0.0758 | 0.916 | 0.438 | 0.0453
CCDC85C | 0.131 | 0.25 | 0.278 | 0.0516
AP2B1 | 0.0608 | 0.26 | 0.307 | 0.0271
CACHD1 | 0.0852 | 0.0746 | 0.318 | 0.0142
FBLN1 | 0.0833 | 0.145 | 0.286 | 0.0229
CALCR | 0.129 | 0.168 | 0.289 | 0.0316
CSNK2B | 0.0903 | 0.112 | 0.344 | 0.0122
KISS1 | 0.193 | 0.15 | 0.297 | 0.0145
STXBP3 | 0.149 | 0.112 | 0.281 | 0.0334
USP7 | 0.0711 | 0.547 | 0.303 | 0.0232
ABL1 | 0.0883 | 0.183 | 0.47 | 0.0115
MGARP | 0.0854 | 0.213 | 0.229 | 0.0425
TM2D1 | 0.212 | 0.207 | 0.409 | 0.0788
SKIC2 | 0.15 | 0.173 | 0.336 | 0.0539
LINC00339 | 0.112 | 0.127 | 0.272 | 0.0174
IFNAR1 | 0.0422 | 0.328 | 0.285 | 0.0216

3 entries from above, reformatted:
CSNK2B → BNIP3L mRNA, set 1: 0.0903; NDRG1 mRNA, set 1: 0.112; BNIP3 mRNA, set 1: 0.344; ALDOC mRNA, set 1: 0.0122
KISS1 → BNIP3L mRNA, set 1: 0.193; NDRG1 mRNA, set 1: 0.15; BNIP3 mRNA, set 1: 0.297; ALDOC mRNA, set 1: 0.0145
STXBP3 → BNIP3L mRNA, set 1: 0.149; NDRG1 mRNA, set 1: 0.112; BNIP3 mRNA, set 1: 0.281; ALDOC mRNA, set 1: 0.0334
